PubChem BioAssay AID1259329 | Drosophila RNAi Screening Center – 2017
Shown is a random part of 418 reagents. 20 of them (4.8%) were called active. 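All active calls have high ATP; no reagent fell below -1.5.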 Unmarked entries are inactive. Reagents against one gene are numbered here. The record does not give: the amount of reagent, the dose of the treatment.

Assay: 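Total ATP after each knock-down with water instead of metal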
Cells: Drosophila S2R+ cells
Reagents: long dsRNA against Drosophila genes
Duration: 5 days (4 days knock-down, then 1 day after water)
Challenge: water added as vehicle control, no metal, one day before read-out
Detection: 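After 4 days of knock-down, water was added with no metal, and total ATP was read by luciferase light a day later on two plate copies, as mean z-score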
Reading the numbers: mean ATP z-score: higher = more total ATP, likely more viable cells
Hit rule: 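Active means the absolute value of the z-score is over 1.5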

After knock-down of Ect3 #1, the record shows mean ATP z-score 0.927. Against Ect3 #2, the entry reads mean ATP z-score -0.508. Ect3 #3 showed mean ATP z-score -0.18. For Hgsnat #1, the values are mean ATP z-score -0.844. Hgsnat #2 showed mean ATP z-score -0.155. After knock-down of Hgsnat #3, the record shows mean ATP z-score 0.356.

Against Acsf2 #1, the entry reads mean ATP z-score 0.107. Against Acsf2 #2 the deposit lists mean ATP z-score 0.848. Silencing of Vha26 #1 came out at: mean ATP z-score 0.0846. For Vha26 #2, the values are mean ATP z-score -0.517. Silencing of Vha26 #3 resulted in: mean ATP z-score -0.852. Against CG9886 #1, the entry reads mean ATP z-score -0.139.

CG9886 #2 gave mean ATP z-score 0.442. Against CG9886 #3, the values are mean ATP z-score -0.109. With knock-down of Vps24 #1, the screen gave mean ATP z-score -0.384. Against Vps24 #2, the entry reads mean ATP z-score 1. With knock-down of Vps24 #3, the record shows mean ATP z-score 0.062. Against Pex14 #1 the deposit lists mean ATP z-score -0.724.

For Pex14 #2, the values are mean ATP z-score 0.352. After knock-down of Vha36-1 #1 the results were mean ATP z-score 1.49. Vha36-1 #2 showed mean ATP z-score -0.079. After knock-down of Pex19, the screen gave mean ATP z-score -0.769.

7 consecutive records already listed, for reference:
CG9886 #1 — mean ATP z-score = -0.139
CG9886 #2 — mean ATP z-score = 0.442
CG9886 #3 — mean ATP z-score = -0.109
Vps24 #1 — mean ATP z-score = -0.384
Vps24 #2 — mean ATP z-score = 1
Vps24 #3 — mean ATP z-score = 0.062
Pex14 #1 — mean ATP z-score = -0.724

More entries follow:
Knock-down of ATP6AP2 #1 resulted in: mean ATP z-score -0.231. After knock-down of ATP6AP2 #2, the record shows mean ATP z-score -0.862. Silencing of ATP6AP2 #3 gave: mean ATP z-score 2.22 (active). Against CatB #1, the values are mean ATP z-score 0.972. CatB #2 showed mean ATP z-score -0.217. With knock-down of CatB #3, the screen gave mean ATP z-score -0.247.

Against AP-1-2beta #1 the deposit lists mean ATP z-score -1.4. AP-1-2beta #2 scored mean ATP z-score -0.787. For AP-1-2beta #3, the values are mean ATP z-score 0.264. VhaAC39-2 #1 showed mean ATP z-score -0.451. For VhaAC39-2 #2 the deposit lists mean ATP z-score -1.38. Against VhaM9.7-a #1, the entry reads mean ATP z-score -1.45.

Silencing of VhaM9.7-a #2 resulted in: mean ATP z-score 0.935. CG7408 showed mean ATP z-score 0.149. Gnpat #1 scored mean ATP z-score 0.085. For Gnpat #2, the entry reads mean ATP z-score 2.6 (active). Cat #1 showed mean ATP z-score -0.232. Knock-down of Cat #2 resulted in: mean ATP z-score -0.575.

After knock-down of Cat #3, the record shows mean ATP z-score -0.132. wat #1 showed mean ATP z-score 0.152. wat #2 scored mean ATP z-score -0.855. Pex11ab showed mean ATP z-score 0.248. Against Tsp42Ea #1, the values are mean ATP z-score 0.623. Tsp42Ea #2 showed mean ATP z-score -0.298.

Against Idh #1, the entry reads mean ATP z-score 0.0514. Against Idh #2, the values are mean ATP z-score -0.715. Knock-down of Idh #3 gave: mean ATP z-score 1.02.
